Test results: the supplement of paper PMC9492666
The entries are a selection whose mix differs from that of the whole data set.

Tests used:
Conditions in all cases: 72 h
HCC1937 [1] = test: relative cell viability, compound alone, vs DMSO (fraction of DMSO control); higher = less growth inhibition
MDA-MB-231 [2] = test: as above
HCC1937 [3] = test: relative cell viability, compound + RSL3, vs DMSO (fraction of DMSO control); higher = less growth inhibition
MDA-MB-231 [4] = test: as above
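Throughout, for relative cell viability, compound + RSL3, vs DMSO: breast cancer cell viability read out with the CCK-8 kit after co-treatment of each compound with the ferroptosis inducer RSL3.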
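Throughout, for relative cell viability, compound alone, vs DMSO: viability read out with the CCK-8 kit in 96-well plates, screening a set of 303 compounds acting on lipid metabolism targets.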

Compound	relative cell viability (HCC1937 [1])	relative cell viability (MDA-MB-231 [2])	relative cell viability (HCC1937 [3])	relative cell viability (MDA-MB-231 [4])
Cc1c(C(=O)NN2CCCCC2)nn(-c2ccc(Cl)cc2Cl)c1-c1ccc(I)cc1	0.722	0.899		
Cc1c(C(=O)NN2CCCCC2)nn(-c2ccc(Cl)cc2Cl)c1-c1ccc(I)cc1 + COC(=O)c1ccc([C@H]2c3[nH]c4ccccc4c3C[C@H](C(=O)OC)N2C(=O)CCl)cc1 [RSL3]			0.416	0.503
